Data as given in PubChem BioAssay AID504786 (Drosophila RNAi Screening Center, 2011)
In all, the deposit lists about 21,000 reagents; shown is an unselected part of those with a known target gene and a result. 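Primary screen; positive scores mean lost reporter signal, so the sign may be inverted from the usual convention.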 The numbers tell different reagents against one gene apart. Not all columns of the deposit are shown.

Assay: 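Positive regulators of HIF-driven reporter output in Drosophila cells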 (primary screen)
Cell system: Drosophila S2 cells with a stable HIF luciferase reporter
Knock-down reagent: long dsRNA against Drosophila genes, about 0.2 µg dsRNA per well of a 384-well plate
Duration: three days of knock-down, then 20 h of DFO before reading
Conditions: desferrioxamine (DFO) at 100 µM, an iron chelator that mimics hypoxia, for 20 h
Read-out: 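Firefly luciferase driven by the mouse ldh-a hypoxia-response element, measured after 20 h of 100 µM DFO; z-scores per plate, higher means more signal lost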
Direction: z-score: higher = stronger loss of HIF reporter signal

The opening 3 entries as a preview:
target gene | dsRNA no. | z-score, replicate 1 | z-score, replicate 2
TpnC47D (Troponin C at 47D) | 1 | -0.3 | -0.1
Oat (Ornithine aminotransferase precursor) | 1 | -0.3 | -0.3
CG17242 | 1 | -0.4 | -0.1

The listing, from the start:
target gene | dsRNA no. | z-score, replicate 1 | z-score, replicate 2
TpnC47D (Troponin C at 47D) | 1 | -0.3 | -0.1
Oat (Ornithine aminotransferase precursor) | 1 | -0.3 | -0.3
CG17242 | 1 | -0.4 | -0.1
CG8008 | 1 | -0.4 | 0.1
Ssb-c31a (Single stranded-binding protein c31A) | 1 | -0.3 | -0.5
BaraB (Baramicin B) | 1 | -0.3 | 0
CG17824 (retired record) | 1 | -0.3 | -1.1
mRpL15 (mitochondrial ribosomal protein L15) | 1 | 1.1 | 0.8
Syx6 (Syntaxin 6) | 1 | -0.3 | -0.6
CG34249 (retired record) | 1 | -0.2 | -0.1
St4 (Sulfotransferase 4) | 1 | -0.3 | -0.3
CG10527 | 1 | -0.3 | -0.8
CG14280 | 1 | -1.1 | -0.3
Rheb (Ras homolog enriched in brain) | 1 | 4.7 | 3
CG11617 | 1 | -0.3 | -0.3
Vps13D (Vacuolar protein sorting 13D) | 1 | -0.2 | -0.3
Vps13D (Vacuolar protein sorting 13D) | 2 | -0.2 | -0.4
Drsl6 (Drosomycin-like 6) | 1 | -0.3 | -0.8
tsh (teashirt) | 1 | -0.2 | -0.8
zye | 1 | -0.3 | -0.4
Cad87A (Cadherin 87A) | 1 | -0.3 | -0.2
wtrw (water witch) | 1 | -0.3 | 0.3
wtrw (water witch) | 2 | -0.2 | 0.5
CG6040 | 1 | -0.2 | -0.4
CG15115 | 1 | -1.1 | -0.5
CG1090 | 1 | -0.2 | -0.5
CG9849 | 1 | -0.3 | 0
Uch (Ubiquitin carboxy-terminal hydrolase) | 1 | -0.3 | -0.4
CG31111 | 1 | -0.5 | -0.5
isoQC (iso Glutaminyl cyclase) | 1 | -0.2 | -0.4
CG13066 | 1 | -0.3 | -0.8
Ptp52F (Protein tyrosine phosphatase 52F) | 1 | -0.4 | 0
CG15044 | 1 | 0.1 | 1.1
CG13043 | 1 | -0.3 | 0.1
